Source: patent US11160875B2, “Therapeutic nanofiber hydrogels for local treatment of brain-related diseases” (THE JOHNS HOPKINS UNIVERSITY, priority 2015, dated 2021)
At least one peptide structure holds a part that was inferred or is arguable (an end, a ring closure or a residue). Residues, ends and D or L forms follow the SMILES beside them. *: point of attachment. Paclitaxel(2'-OCO(CH2)3S) = CC(=O)O[C@H]1C(=O)[C@@]2(C)[C@H]([C@H](OC(=O)c3ccccc3)[C@]3(O)C[C@H](OC(=O)[C@H](OC(=O)CCCS*)[C@@H](NC(=O)c4ccccc4)c4ccccc4)C(C)=C1C3(C)C)[C@]1(OC(C)=O)CO[C@@H]1C[C@@H]2O

Legend:
[1] = Paclitaxel release study in PBS buffer with or without GSH; assay type: physicochemical; details: 37° C.
Method: FIGS. 15A-15D illustrate fluorescence measurements to determine the CMC value of PTX-buSS-FFFRGDR (SEQ ID NO: 1) (A) and PTX-buSS-VVVRGDR (SEQ ID NO: 2) (B) based on Nile Red encapsulation within the assembled nanostructures. Representative CD spectra (solid lines) and UV-vis spectra (dash lines) of 200 μM PTX-buSS-FFFRGDR (SEQ ID NO: 1), 200 μM PTX-buSS-VVVRGDR (SEQ ID NO: 2) and 200 μM. C16-FFFRGDR (SEQ ID NO: 1) (C). Paclitaxel release study of PTX-buSS-FFFRGDR (SEQ ID NO: 1) and PTX-buSS-VVVRGDR (SEQ ID NO: 2) in PBS buffer at 37° C. at 50 μM. Solutions were incubated in the presence or absence of 10 mM GSH. Data are given as mean±s.d. (n=3).
Since the release of the active compound is critical and tunable by altering nanofilaments morphologies, experiments to determine PTX release were carried out in PBS buffer at 37° C. in the presence or absence of 10 mM GSH (FIG. 15D).

[2] = tested on: U87 human glioblastoma cells; assay: Hydrogel drug release and cytotoxicity, live/dead cell staining; assay type: cell-based; details: U87, 24 h incubation with hydrogel, near-gel region 1 and peripheral region 2
Method: FIGS. 17A-17F show the in vitro drug release and cytotoxicity study of PTX-buSS-FFFRGDR (SEQ ID NO: 1), PTX-buSS-VVVRGDR (SEQ ID NO: 2), and C16-FFFRGDR (SEQ ID NO: 1) hydrogels against U87 human glioblastoma cells. Live/dead assay cell images after 24 h of incubation with blank culture media (A and D), PTX-buSS-FFFRGDR (SEQ ID NO: 1) (B and E), or C16-FFFRGDR (SEQ ID NO: 1) (C and F).
The in vitro drug release and cytotoxicity of PTX-buSS-FFFRGDR (SEQ ID NO: 1) was assessed and compared to that of C16-FFFRGDR (SEQ ID NO: 1) blank hydrogel against U87 human glioblastoma cells (FIG. 17). Cells were incubated for 24 h with PTX-loaded and PTX-free hydro-gels and cell viability was determined using live/dead cell staining method. Two sections along gradient decaying radius were taken to compare cell viability after treatment with different hydrogels.

CC(=O)N[C@@H](CSSCCCC(=O)O[C@@H](C(=O)O[C@H]1C[C@@]2(O)[C@@H](OC(=O)c3ccccc3)[C@@H]3[C@]4(OC(C)=O)CO[C@@H]4C[C@H](O)[C@@]3(C)C(=O)[C@H](OC(C)=O)C(=C1C)C2(C)C)[C@@H](NC(=O)c1ccccc1)c1ccccc1)C(=O)N[C@@H](Cc1ccccc1)C(=O)N[C@@H](Cc1ccccc1)C(=O)N[C@@H](Cc1ccccc1)C(=O)N[C@@H](CCCNC(=N)N)C(=O)NCC(=O)N[C@@H](CC(=O)O)C(=O)N[C@@H](CCCNC(=N)N)C(=O)O [PTX-buSS-FFFRGDR] (Ac-C(Paclitaxel(2'-OCO(CH2)3S))FFFRGDR-OH)
PTX release rate, with GSH versus without ([1]; 50 μM, presence or absence of 10 mM GSH): faster release rates under GSH conditions | PTX release rate compared with the other PTX drug amphiphile ([1]; both GSH+ and GSH− conditions): sustainable release rate compared with PTX-buSS-VVVRGDR | cell viability by live/dead staining around the hydrogel [2]: intense red fluorescence in near-gel region 1 and mostly green fluorescence in peripheral region 2
